Results deposited as PubChem BioAssay AID504784 (Drosophila RNAi Screening Center, 2011).
Purpose: 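Genome-wide knock-down for genes giving too much or too little stored lipid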 (primary screen). Cells: Drosophila Kc167 embryonic cells. Knock-down reagent: long dsRNA against Drosophila genes, about 250 ng dsRNA per well. Time to read-out: 4 days. Conditions: cells fed 400 µM oleic acid bound to BSA. Read-out: 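Microscope images give a droplet-to-nucleus area ratio, taken as log and converted to a screen-wide B-score; higher values mean greater lipid storage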. Scale: droplet/nuclear area B-score: higher = more stored lipid (overstorage).
The screen tested about 17,000 reagents; below is an unselected part of those that have a named target and a result. 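Each column is one replicate's B-score; the combined score over replicates was not deposited, so single values may mislead.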 A plus sign joins genes that one reagent is predicted to hit.

Target gene	dsRNA	droplet/nuclear area B-score, replicate 1	droplet/nuclear area B-score, replicate 2	droplet/nuclear area B-score, replicate 3
CG17134	DRSC02583	1.43	-1.48	
FoxK	DRSC09859	2.02		
Rab32	DRSC05146	-0.348	-0.229	
Rab32	DRSC07522	-1.5	0.379	
CG13023	DRSC09903	0.12	-1.51	
CG7378	DRSC20041	0.75	-0.44	
ERR	DRSC10840	0.2	0.405	
fs(1)K10	DRSC18775	1.11	-0.00339	
Tango9	DRSC14173	-0.163	0.0108	
Rai1	DRSC20157	-0.225	1.49	
CG33251 (retired record) + CG9915	DRSC20217	-0.827	-0.106	
CG14903	DRSC15024	-0.0637	-3.48	
CG12213	DRSC14478	2.35	1.4	-0.932
CG12213	DRSC22109	3.11	0.0175	
Eig71Ej	DRSC11157	0.0774	0.582	
bic	DRSC07584	2.71	1.95	
Dic4	DRSC10317	0.762	2.05	
dgt1	DRSC15301	0.0708	0.688	
spel1	DRSC03617	-0.932	-3.22	
Meltrin	DRSC16274	-0.0147	2.07	
Meltrin	DRSC21693	-0.477	-0.594	
Ugt35C1	DRSC16080	-0.787	-0.855	
Prosalpha6	DRSC03401	1.97	1.48	
CG12118	DRSC17813	0.867	-0.0562	-0.945
CG14673 (retired record)	DRSC12259	1.61	0.529	
sordd2 + sordd1	DRSC20136	-0.837	0.47	-0.668
CG3008	DRSC00560	-0.396	1.28	
t-Grip84	DRSC10904	-0.692	-0.143	
Mal-B2	DRSC02417	0.00618	0.223	
ebd2	DRSC11682	0.219	2.91	
CG5555	DRSC15834	-0.00982	0.409	
CG32379	DRSC10318	-0.248	-0.0995	
kuk	DRSC15730	0.365	-0.0569	
siz	DRSC11622	0.208	-1.58	
siz	DRSC11689	1.82	-0.0577	
siz	DRSC11690	0.508	-2.04	
LysP	DRSC08676	0.474	2.02	
aralar1	DRSC13987	-0.676	1.05	
aralar1	DRSC16901	-0.399	1.7	
CG7945	DRSC10934	-2.37	-1.09	-1.12
Sodq	DRSC15924	0.348	-0.181	
Pus7	DRSC10703	-0.549	-1.33	
veli	DRSC16276	-0.408	2.62	
CG10543	DRSC04081	-0.984	4.03	
CG10543	DRSC23102	-0.841	-1.09	
Sirup	DRSC03031	1.15	-1.1	
Kul	DRSC15404	-1.46	1.04	
Upf2	DRSC18218	0.291	0.0228	
CG13443	DRSC06403	1.08	0.884	
beat-IIIa	DRSC01577	-1.56	-0.561	
beat-IIIa	DRSC02178	0.51	0.506	
Rgl	DRSC11267	0.133	0.0023	
Dip-B	DRSC16466	-2.89	0.857	
CG31954	DRSC00580	0.886	0.687	
CG15254	DRSC01870	1.22	1.41	0.341
CG15254	DRSC21765	2.17	-0.00581	
